Data: paper PMC5249081
These are yes or no findings as the source states them, for the method shown. In cells and extracts the contact can be indirect. For some assays here: Binding calls can cover weak binding; strength is not graded here.

T1: cytochrome c oxidase subunit II (Paracoccus denitrificans (endogenous in Pd1222 membranes)) (UniProt P08306)
T1 sequence: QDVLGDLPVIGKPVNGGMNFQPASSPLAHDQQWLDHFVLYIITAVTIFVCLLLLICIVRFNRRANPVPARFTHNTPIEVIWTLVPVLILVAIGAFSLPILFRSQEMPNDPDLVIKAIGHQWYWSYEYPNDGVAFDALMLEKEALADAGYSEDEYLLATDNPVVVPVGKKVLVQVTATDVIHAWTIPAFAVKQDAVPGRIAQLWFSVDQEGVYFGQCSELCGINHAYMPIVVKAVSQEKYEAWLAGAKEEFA

B1: heme a synthase CtaA (enzyme, UniProt A1B8C2 1-381)
chain: MARRPVFQEVTETTPPGTTPSGGMIDAGHKGARGAIRLWLVVLFVMVAAMIALGGATRLTGSGLSITEWKPVTGAIPPMDAATWQAEFDKYRQIPQFELVNSDMDLASFKRIYWWEWSHRLLGRLVGLVWAAGFVFFLATRRIPTGWTPRLLLLGALGGAQGAIGWWMVHSGLSGEMVRVASYRLATHLGLAFAILGLIAWYVLALSRSEAALLRARRAGEAKLFSMTTGLMHLAFVQILLGALVAGIDAGRMYTGWPTMGGEWIPAEIWDATLGWRNFFENPALVQFIHRMTGYLLAVFAVVVFLRARRSPHPVTRGAYVAMLVALAVQVALGIMNVLHASPLPLALAHQIGAVALFTLILRARHHARYPYETSVRGTVR

Legend:
[1] = biological target: T1, cytochrome c oxidase subunit II (Paracoccus denitrificans (endogenous in Pd1222 membranes)); assay: co-IP; membranes of untreated (non-crosslinked) cells (WT, FA2, MR31) solubilised with digitonin 8 g/g in 50 mM Tris/HCl pH 7.2; antiserum (anti-COX, anti-CtaG, anti-Surf1c, anti-CtaA) on protein A/G magnetic beads; washes 20 mM Tris/HCl pH 7.2, 50 mM NaCl, 0.08% digitonin; eluates immunoblotted
[2] = biological target: Surf1c (Paracoccus denitrificans (endogenous in Pd1222 membranes)); assay: as above

Molecule	binding [1]	binding [2]
CtaG	binds	–
B1	–	no binding
